The text below walks through data of publication PMC3828177.

Changes are numbered by the printed parent chain. Results are given in words; binding and its absence hold for the method and conditions named. In cells and extracts the contact can be indirect. Some results given as binding are weak or reduced against the parent protein; the word gives no strength. Sequences can lack the tags named with a protein.

Assay in all cases: co-IP; H1299 expressing FLAG-B55α species in the absence and presence of HA-E4orf4; anti-FLAG precipitation, blot with anti-p107 (endogenous p107)
In assay [1] the target is T1, FLAG-B55α (wild type) (rat) (UniProt P36876).
T1 sequence: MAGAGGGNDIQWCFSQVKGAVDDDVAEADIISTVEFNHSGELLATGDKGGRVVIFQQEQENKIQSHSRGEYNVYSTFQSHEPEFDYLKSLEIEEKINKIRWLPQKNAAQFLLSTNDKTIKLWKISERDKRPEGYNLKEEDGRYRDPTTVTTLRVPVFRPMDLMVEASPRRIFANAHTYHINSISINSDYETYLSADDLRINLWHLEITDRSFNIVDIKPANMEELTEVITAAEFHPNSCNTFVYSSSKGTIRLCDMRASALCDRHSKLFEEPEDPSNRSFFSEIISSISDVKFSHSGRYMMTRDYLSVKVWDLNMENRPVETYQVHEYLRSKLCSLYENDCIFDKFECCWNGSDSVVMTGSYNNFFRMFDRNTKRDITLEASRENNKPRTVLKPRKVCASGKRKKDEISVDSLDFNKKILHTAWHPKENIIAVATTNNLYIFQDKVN

For the next assay, the target named is T2, FLAG-B55α D197K (rat) (UniProt P36876).
T2 sequence: T1 sequence with D197K

Another assay concerns the target T3, FLAG-B55α D340K (rat) (UniProt P36876).
T3 sequence: T1 sequence with D340K

Assay [2] deals with T4, FLAG-B55α E91A/E93A/E94A/F343A (rat) (UniProt P36876).
T4 sequence: T1 sequence with E91A, E93A, E94A, F343A

B1: p107 (endogenous) (protein, UniProt P28749 1-1068)
chain: MFEDKPHAEGAAVVAAAGEALQALCQELNLDEGSAAEALDDFTAIRGNYSLEGEVTHWLACSLYVACRKSIIPTVGKGIMEGNCVSLTRILRSAKLSLIQFFSKMKKWMDMSNLPQEFRERIERLERNFEVSTVIFKKYEPIFLDIFQNPYEEPPKLPRSRKQRRIPCSVKDLFNFCWTLFVYTKGNFRMIGDDLVNSYHLLLCCLDLIFANAIMCPNRQDLLNPSFKGLPSDFHTADFTASEEPPCIIAVLCELHDGLLVEAKGIKEHYFKPYISKLFDRKILKGECLLDLSSFTDNSKAVNKEYEEYVLTVGDFDERIFLGADAEEEIGTPRKFTRDTPLGKLTAQANVEYNLQQHFEKKRSFAPSTPLTGRRYLREKEAVITPVASATQSVSRLQSIVAGLKNAPSDQLINIFESCVRNPVENIMKILKGIGETFCQHYTQSTDEQPGSHIDFAVNRLKLAEILYYKILETVMVQETRRLHGMDMSVLLEQDIFHRSLMACCLEIVLFAYSSPRTFPWIIEVLNLQPFYFYKVIEVVIRSEEGLSRDMVKHLNSIEEQILESLAWSHDSALWEALQVSANKVPTCEEVIFPNNFETGNGGNVQGHLPLMPMSPLMHPRVKEVRTDSGSLRRDMQPLSPISVHERYSSPTAGSAKRRLFGEDPPKEMLMDKIITEGTKLKIAPSSSITAENVSILPGQTLLTMATAPVTGTTGHKVTIPLHGVANDAGEITLIPLSMNTNQESKVKSPVSLTAHSLIGASPKQTNLTKAQEVHSTGINRPKRTGSLALFYRKVYHLASVRLRDLCLKLDVSNELRRKIWTCFEFTLVHCPDLMKDRHLDQLLLCAFYIMAKVTKEERTFQEIMKSYRNQPQANSHVYRSVLLKSIPREVVAYNKNINDDFEMIDCDLEDATKTPDCSSGPVKEERGDLIKFYNTIYVGRVKSFALKYDLANQDHMMDAPPLSPFPHIKQQPGSPRRISQQHSIYISPHKNGSGLTPRSALLYKFNGSPSKSLKDINNMIRQGEQRTKKRVIAIDSDAESPAKRVCQENDDVLLKRLQDVVSERANH
In the case of B1, the binding entry is “binds” in assay [1], “no binding” with FLAG-B55α D197K (rat), “binds” in the assay with FLAG-B55α D340K (rat) and “binds” in assay [2].
